Where a name gives a salt, the structure may show the parent alone. The list shows a part of the results. This data set is noisy: repeats of one test often differ as much as different tests do.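 Human kidney-derived cells stably carry a construct in which eight TEAD-binding elements drive luciferase, measured by luminescence in a drug-repurposing library screen. A hit is any compound whose signal exceeds the plate mean by more than five robust Z scores.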
System: HEK293A TEAD-LUC reporter
Assay: TEAD-luciferase reporter activity (YAP activation), robust Z score vs plate; higher = stronger YAP/TEAD activation
Settings: 24 h

| Compound | TEAD-luciferase reporter activity (compound concentration: 200 nM) | TEAD-luciferase reporter activity (compound concentration: 2 uM) | TEAD-luciferase reporter activity (compound concentration: 10 uM) |
| --- | --- | --- | --- |
| Cc1ccc(Cc2c[nH]c(NCCSCc3ccc(CN(C)C)o3)nc2=O)cn1 [Lupitidine hydrochloride] | inactive: -2.72 | inactive: 0.746 | inactive: 0.651 |
| CC[C@H](C)[C@H](NC(=O)[C@H](CO)NC(=O)[C@H](CC(N)=O)NC(=O)[C@H](CC(C)C)NC(=O)[C@H](Cc1ccc(O)cc1)NC(=O)[C@H](CCCCN)NC(=O)[C@H](CCCCN)NC(=O)[C@@H](NC(=O)[C@H](C)NC(=O)[C@H](CCSC)NC(=O)[C@H](CCC(N)=O)NC(=O)[C@H](CCCCN)NC(=O)[C@H](CCCNC(=N)N)NC(=O)[C@H](CC(C)C)NC(=O)[C@H](CCCNC(=N)N)NC(=O)[C@@H](NC(=O)[C@H](Cc1ccc(O)cc1)NC(=O)[C@H](CC(N)=O)NC(=O)[C@H](CC(=O)O)NC(=O)[C@@H](NC(=O)[C@H](Cc1ccccc1)NC(=O)[C@@H](NC(=O)[C@H](C)NC(=O)[C@H](CC(=O)O)NC(=O)[C@H](CO)NC(=O)[C@@H](N)Cc1cnc[nH]1)C(C)C)[C@@H](C)O)[C@@H](C)O)C(C)C)C(=O)N[C@@H](CC(C)C)C(=O)N[C@@H](CC(N)=O)C(=O)O [Aviptadil] |  | inactive: 0.308 | inactive: -0.502 |
| CCCCC/C=C/C/C=C/C/C=C/CCCCC(=O)O | inactive: 0.627 | inactive: 0.741 | inactive: -1.01 |
| COc1ccc(-c2nnc(C)nc2-c2ccc(OC)cc2)cc1 [anitrazafen] | inactive: -0.243 | inactive: -1.64 | inactive: -0.387 |
| CS(=O)(=O)Oc1ccc(OCCc2ccc(CC(SCCc3ccc(O)cc3)C(=O)O)cc2)cc1 (stereo not drawn) | inactive: 3.99 | inactive: -0.584 | inactive: 0.198 |
| CN[C@@H](C)C(=O)N[C@H](C(=O)N1CCC[C@H]1c1nc(C(=O)c2ccc(F)cc2)cs1)C1CCCCC1 | inactive: 0.762 | inactive: 0.689 | inactive: 3.45 |
| FC(F)OC(Cl)C(F)(F)F (stereo not drawn) [isoflurane] | inactive: -1.39 | inactive: -0.697 | inactive: -0.61 |
| C=C[C@H]1CNCC[C@H]1CCC(=O)c1ccnc2ccc(OC)cc12 | inactive: -0.774 | inactive: 0.245 | inactive: 0.725 |
| CC1=CC(=O)c2ccccc2C1=O [Menadione] |  | inactive: -2.43 |  |
| CC1=CC(=O)c2ccccc2C1=O | inactive: 0.126 |  | inactive: 0.455 |
| CCCCOc1nc(N)c2[nH]c(=O)n(CCCN(CCCN3CCOCC3)Cc3cccc(CC(=O)OC)c3)c2n1 | inactive: -0.22 | inactive: -0.816 | inactive: 1.41 |
| Cc1oc(-c2cccs2)nc1CCOc1ccc(CC(C)(Oc2ccccc2)C(=O)O)cc1 (stereo not drawn) | inactive: -0.605 | inactive: -0.244 | inactive: -0.0292 |
| CC1(C)Oc2ccc(C#N)cc2[C@@H](N(Cc2ncc[nH]2)c2ccc(Cl)cc2)[C@@H]1O | inactive: 0.569 | inactive: -0.824 | inactive: -0.139 |
| COc1c(C)c2c(c(O)c1CC=C(C)CCC(=O)OCCN1CCOCC1)C(=O)OC2 [mycophenolate mofetil] | inactive: -0.333 | inactive: 2.22 | inactive: 1.1 |
| Cc1cnc(NCC(F)(F)c2ccccc2)c(=O)n1CC(=O)NCCONC(=N)N | inactive: -0.444 | inactive: -0.492 | inactive: -1.43 |
| Cc1c(C)c2c(c(C)c1O)CCC(C)(CN1CCN(c3cc(N4CCCC4)nc(N4CCCC4)n3)CC1)O2 (stereo not drawn) | inactive: -0.472 | inactive: 1.11 | inactive: -1.94 |
| CC(C)(C)c1cc(CN2CCN(CC(O)c3ccc(Cl)cc3)CC2)cc(C(C)(C)C)c1O (stereo not drawn) | inactive: -2.6 | inactive: -1.64 | inactive: 1.91 |
| CCOC(=O)c1c(C)nc(C)c(C(=O)OC)c1-c1cccc(Cl)c1Cl | inactive: 0.29 | inactive: -3.22 | inactive: -1.63 |
| CO[C@H]1C[C@H](O[C@H]2[C@H](C)[C@@H](O[C@@H]3O[C@H](C)C[C@H](N(C)C)[C@H]3OC(C)=O)[C@@H](C)C[C@@]3(CO3)C(=O)[C@H](C)[C@@H](OC(C)=O)[C@@H](C)[C@@H](C)OC(=O)[C@@H]2C)O[C@@H](C)[C@@H]1OC(C)=O [troleandomycin, Elan] | inactive: -1.44 |  | inactive: -1.14 |
| CO[C@H]1C[C@H](O[C@H]2[C@H](C)[C@@H](O[C@@H]3O[C@H](C)C[C@H](N(C)C)[C@H]3OC(C)=O)[C@@H](C)C[C@@]3(CO3)C(=O)[C@H](C)[C@@H](OC(C)=O)[C@@H](C)[C@@H](C)OC(=O)[C@@H]2C)O[C@@H](C)[C@@H]1OC(C)=O [troleandomycin] |  | inactive: -1.05 |  |
| CC(C)(C)N/C(=N\C#N)Nc1cccc(/C(=C\CCCC(=O)O)c2cccnc2)c1 | inactive: 0.304 | inactive: -0.554 | inactive: -0.201 |
| COc1ccc2nc(=O)[nH]c(C)c2c1OC | inactive: -0.473 | inactive: -0.132 | inactive: -0.0698 |
| CC/C(=C\C(=N/O)C(N)=O)C(C)[N+](=O)[O-] (stereo not drawn) | inactive: 3.37 | inactive: -0.85 | inactive: 1.94 |
| CCCCN(CC)c1nc(C)nc2c1c(C)cn2-c1c(C)cc(C)cc1C | inactive: 4.15 | inactive: -1.31 | inactive: 0.224 |
| CC[C@H](C)[C@H](NC(=O)[C@@H]1CCCN1C(=O)[C@@H](NC(=O)[C@@H](N)Cc1ccccc1)C(C)C)C(=O)N[C@@H](Cc1ccccc1)C(=O)N[C@H](C(=O)N[C@@H](Cc1ccc(O)cc1)C(=O)NCC(=O)N[C@@H](CCC(=O)O)C(=O)N[C@@H](CC(C)C)C(=O)N[C@@H](CCC(N)=O)C(=O)N[C@@H](CCCNC(=N)N)C(=O)N[C@@H](CC(C)C)C(=O)N[C@@H](CCC(N)=O)C(=O)N[C@@H](CCC(=O)O)C(=O)N[C@@H](CCCCN)C(=O)N[C@@H](CCC(=O)O)C(=O)N[C@@H](CCCNC(=N)N)C(=O)N[C@@H](CC(N)=O)C(=O)N[C@@H](CCCCN)C(=O)NCC(=O)N[C@@H](CCC(N)=O)C(=O)O)[C@@H](C)O [[Leu13]-Motilin] | inactive: 4.7 | inactive: 1.33 | inactive: -0.633 |

A second format for some results above.
CC1=CC(=O)c2ccccc2C1=O [Menadione]
  TEAD-luciferase reporter activity (compound concentration: 2 uM): inactive: -2.43
CC1=CC(=O)c2ccccc2C1=O
  TEAD-luciferase reporter activity (compound concentration: 200 nM): inactive: 0.126
  TEAD-luciferase reporter activity (compound concentration: 10 uM): inactive: 0.455

Source: the supplement of paper PMC10735217
